The source of these data is article PMC9967013 (Pharmaceutics, 2023).

This data set is described as follows: peptide synthesis. The conditions noted are these: conjugation step, one disulfide bridge, sequence written open.

The substance “DOTA-PEG3-TZ(PEG4-Octr)-PEG2-Trz-PEG3-Val-Cit-pABOC-FTY720” showed a conjugation yield of 33%.
